Values from PubChem BioAssay AID602196 (INSERM, 2012).
Assay: 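Knock-downs that protect lung cancer cells from cisplatin or sensitise them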. Cells: human A549 lung cancer cells. Reagent: siRNA pair against human genes. Time to read-out: 48 h transfection before cisplatin; time from cisplatin to read-out not stated. Treatment: cisplatin at a dose killing half of control-siRNA cells; exact dose and duration not given. Read-out: 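Cisplatin cell death as a shift from the 50% death seen with control siRNA; siRNAs toxic or growth-blocking alone scored 0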. Reading the numbers: two-siRNA summed score (-2 to +2): higher = both siRNAs protect from cisplatin killing; -2 means both sensitise; mean protection from cisplatin (shift in death) and protection from cisplatin (shift in death), siRNA C and protection from cisplatin (shift in death), siRNA D: higher = protection from cisplatin killing. Hit rule: 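siRNAs harmful alone (LDH or WST-1) get 0; others get +1 for less and -1 for more cisplatin killing; genes are active when the two siRNAs give the same sign, summing to ±2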. Calls: active = both siRNAs shift cisplatin killing the same way; inactive = no consistent shift, or siRNA harmful alone.
The whole screen tested about 23,000 reagents; shown is a part drawn at random. Over the whole deposit, 455 (2%) got an active call. 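Active includes both protection and sensitisation; some change values fall well beyond the stated -50 to +50 range.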 Reagent sequences are not shown. Not stated in the record: the amount of reagent.

gene symbol | two-siRNA summed score (-2 to +2) | mean protection from cisplatin (shift in death) (%) | protection from cisplatin (shift in death), siRNA C (%) | protection from cisplatin (shift in death), siRNA D (%) | call
FLJ38359 | 0 | 7.4 | 11.2 | 3.6 | inactive
PCYT1A | 0 | 1.4 | 4.3 | -1.5 | inactive
LOC389207 | -1 | -8.9 | 7.7 | -25.6 | inactive
CEP104 | -1 | -2 | -11.8 | 7.7 | inactive
USP16 | 1 | 16 | 5.4 | 26.5 | inactive
LINC02872 | 0 | 11.7 | 12.1 | 11.4 | inactive
LOC388819 | 1 | 13.1 | 7 | 19.1 | inactive
LINC00518 | 1 | 14.8 | 8.2 | 21.4 | inactive
PKD2L1 | 0 | 6 | 12.1 | -0.2 | inactive
SSX3 | 0 | 7.1 | 7 | 7.2 | inactive
TNFRSF8 | 0 | 4.3 | 2.2 | 6.4 | inactive
ZNF571 | 0 | 8.8 | 10.2 | 7.4 | inactive
CALCB | -1 | -11.5 | -9.2 | -13.7 | inactive
IFI27L2 | 0 | -3.4 | -5.4 | -1.4 | inactive
FABP6 | -1 | -9.1 | -18.2 | -0.1 | inactive
ZIC5 | 0 | 8.9 | 13.4 | 4.5 | inactive
LOC343574 | 0 | 9.8 | 17.7 | 1.9 | inactive
OSR2 | 0 | 3.9 | 1 | 6.8 | inactive
PPP3R1 | 0 | -0.5 | 8.8 | -9.8 | inactive
RPAIN | 0 | 13.3 | 5.2 | 21.3 | inactive
SLC7A2 | 0 | 12.2 | 8 | 16.4 | inactive
PGK2 | 0 | 3.1 | 10.9 | -4.7 | inactive
IFNE | -1 | -4.2 | 9.3 | -17.7 | inactive
FBLN5 | 0 | 0.9 | 1.4 | 0.4 | inactive
LOC391767 (retired record) | 1 | 12.8 | 21.5 | 4.1 | inactive
PNMA2 | 0 | 8.9 | 5.2 | 12.5 | inactive
JUN | 0 | -8.5 | -3.9 | -13.1 | inactive
LOC339281 | 1 | 19.3 | 20.3 | 18.2 | inactive
LOC219414 | 1 | 3.4 | -2 | 8.8 | inactive
OSM | 0 | -3.1 | -6.4 | 0.3 | inactive
LOC441827 | 0 | 0.2 | -2.4 | 2.8 | inactive
ARL17A | 0 | -1.6 | -0.4 | -2.8 | inactive
PRRC1 | 0 | 6.6 | 5.1 | 8.1 | inactive
CARMIL1 | 0 | 4.4 | 2.9 | 6 | inactive
CLK2 | 0 | 9.1 | 6.3 | 12 | inactive
OR6M1 | 0 | 3.8 | 8.2 | -0.7 | inactive
OR51E2 | 0 | 5.2 | 9.3 | 1 | inactive
LOC401065 | 0 | 9.7 | 9.8 | 9.7 | inactive
DR1 | 0 | 7.7 | 11.6 | 3.9 | inactive
TTC7B | 1 | 7.7 | 20.7 | -5.4 | inactive
CNTNAP3P2 | 0 | 2.7 | 12.6 | -7.2 | inactive
TOX4P1 | 1 | 12.5 | 14.8 | 10.2 | inactive
ZCRB1 | 0 | 5.7 | 12.7 | -1.3 | inactive
LOC400813 | 0 | -4 | -14.6 | 6.6 | inactive
HNRNPK | 0 | 5.4 | 4 | 6.8 | inactive
LOC400125 | 1 | 11.5 | 16.2 | 6.8 | inactive
DYNLT3 | 1 | 21.6 | 6.4 | 36.7 | inactive
XRCC4 | 0 | -6.7 | -6.7 | -6.6 | inactive
TMEM11 | 0 | 2.7 | -2.7 | 8.1 | inactive
SLC35F2 | 0 | -5.3 | -0.4 | -10.2 | inactive
NME6 | 0 | 4.8 | 6.6 | 3 | inactive
ERVFRD-1 | 0 | 1.3 | 5.3 | -2.8 | inactive
GTPBP3 | 1 | 11.6 | 24.4 | -1.2 | inactive
GPR139 | 1 | 10 | -1.9 | 21.9 | inactive
CCNE1 | 1 | 12.1 | 1.5 | 22.7 | inactive
PLCXD2 | 1 | 7.1 | 14.7 | -0.5 | inactive
COL6A2 | 0 | 26.5 | 3.2 | 49.7 | inactive
CHMP1A | -1 | -12.5 | -14.5 | -10.6 | inactive
LOC388305 | 0 | 4.1 | -4.8 | 13 | inactive
ZNF776 | 1 | 7 | -3 | 17 | inactive
AKAP10 | -1 | -4.3 | -16.8 | 8.1 | inactive
IQUB | 0 | -3.9 | -6.8 | -1 | inactive
COPS5 | -1 | -6.7 | 6.7 | -20.1 | inactive
LOC388809 | 1 | 17.6 | 9 | 26.1 | inactive
TBC1D2B | 1 | 6.5 | -11.4 | 24.4 | inactive
SKA1 | 0 | -2.6 | -1.4 | -3.8 | inactive
ILK | 1 | 4.1 | 14.5 | -6.3 | inactive
CTSF | -1 | -16.1 | -10.9 | -21.3 | inactive
SLCO2A1 | 1 | 26.2 | 35.8 | 16.6 | inactive
IL11RA | 0 | 6.6 | 12.1 | 1 | inactive
CDC20 | 1 | -12.9 | 9.1 | -34.9 | inactive
CASP8 | 0 | -2.5 | -11.6 | 6.5 | inactive
ZNF480 | 0 | 8.3 | 7.5 | 9.1 | inactive

Looked up above:
Entry for LOC388809 in “protection from cisplatin (shift in death), siRNA C (%)”: 9
For “call”, LOC441827 shows inactive
For “two-siRNA summed score (-2 to +2)”, LOC400125 has 1
Under “two-siRNA summed score (-2 to +2)”, LOC389207 reads -1
Entry of CNTNAP3P2 under “call”: inactive
JUN, protection from cisplatin (shift in death), siRNA C (%): -3.9
